Reference: article doi:10.1101/2023.12.20.572533
Results are given in words; binding and its absence hold for the method and conditions named. Some binding calls cover weakened binding; strength is not graded here. For some of these results: Where a sequence is shown, tags or fusion partners need not be part of it.

T1: GST-tagged MUT-16^1-383 (C. elegans) (UniProt O62011)
T1 sequence: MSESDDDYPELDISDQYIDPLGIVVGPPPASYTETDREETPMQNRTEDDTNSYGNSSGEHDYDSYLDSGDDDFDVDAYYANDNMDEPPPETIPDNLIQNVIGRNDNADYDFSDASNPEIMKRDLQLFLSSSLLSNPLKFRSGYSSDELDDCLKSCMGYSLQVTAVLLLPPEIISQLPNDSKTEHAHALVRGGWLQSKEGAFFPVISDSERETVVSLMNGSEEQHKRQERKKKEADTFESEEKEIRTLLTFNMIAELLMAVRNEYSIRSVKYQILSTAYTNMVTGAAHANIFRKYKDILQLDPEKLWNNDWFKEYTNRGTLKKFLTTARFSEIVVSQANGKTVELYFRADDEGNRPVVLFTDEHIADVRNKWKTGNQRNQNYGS

T2: GST-tagged MUT-16^1-584 (C. elegans) (UniProt O62011)
T2 sequence: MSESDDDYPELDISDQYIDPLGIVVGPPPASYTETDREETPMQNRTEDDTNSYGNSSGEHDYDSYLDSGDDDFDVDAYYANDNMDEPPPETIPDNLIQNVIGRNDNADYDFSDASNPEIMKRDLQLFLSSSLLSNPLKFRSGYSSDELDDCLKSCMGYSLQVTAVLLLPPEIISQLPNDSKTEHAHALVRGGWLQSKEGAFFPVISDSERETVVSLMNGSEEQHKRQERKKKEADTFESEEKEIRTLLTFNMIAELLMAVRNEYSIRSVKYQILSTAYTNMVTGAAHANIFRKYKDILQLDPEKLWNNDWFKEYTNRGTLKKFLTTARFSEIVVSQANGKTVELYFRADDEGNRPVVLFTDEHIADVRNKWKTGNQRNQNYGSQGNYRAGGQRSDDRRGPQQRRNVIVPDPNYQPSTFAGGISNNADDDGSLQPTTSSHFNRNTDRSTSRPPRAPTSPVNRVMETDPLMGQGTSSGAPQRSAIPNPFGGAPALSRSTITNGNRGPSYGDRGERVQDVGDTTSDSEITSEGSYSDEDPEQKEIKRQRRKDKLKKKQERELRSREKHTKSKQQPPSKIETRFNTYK

T3: GST-tagged MUT-16^584-724 (C. elegans) (UniProt O62011)
T3 sequence: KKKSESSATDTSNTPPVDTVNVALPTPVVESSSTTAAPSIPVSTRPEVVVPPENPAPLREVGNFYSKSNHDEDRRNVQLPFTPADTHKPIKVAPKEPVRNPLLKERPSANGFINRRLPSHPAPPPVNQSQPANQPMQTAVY

T4: MUT-7^FL(D435A), purified in complex with MUT-8^CTD (C. elegans) (UniProt P34607)
T4 sequence: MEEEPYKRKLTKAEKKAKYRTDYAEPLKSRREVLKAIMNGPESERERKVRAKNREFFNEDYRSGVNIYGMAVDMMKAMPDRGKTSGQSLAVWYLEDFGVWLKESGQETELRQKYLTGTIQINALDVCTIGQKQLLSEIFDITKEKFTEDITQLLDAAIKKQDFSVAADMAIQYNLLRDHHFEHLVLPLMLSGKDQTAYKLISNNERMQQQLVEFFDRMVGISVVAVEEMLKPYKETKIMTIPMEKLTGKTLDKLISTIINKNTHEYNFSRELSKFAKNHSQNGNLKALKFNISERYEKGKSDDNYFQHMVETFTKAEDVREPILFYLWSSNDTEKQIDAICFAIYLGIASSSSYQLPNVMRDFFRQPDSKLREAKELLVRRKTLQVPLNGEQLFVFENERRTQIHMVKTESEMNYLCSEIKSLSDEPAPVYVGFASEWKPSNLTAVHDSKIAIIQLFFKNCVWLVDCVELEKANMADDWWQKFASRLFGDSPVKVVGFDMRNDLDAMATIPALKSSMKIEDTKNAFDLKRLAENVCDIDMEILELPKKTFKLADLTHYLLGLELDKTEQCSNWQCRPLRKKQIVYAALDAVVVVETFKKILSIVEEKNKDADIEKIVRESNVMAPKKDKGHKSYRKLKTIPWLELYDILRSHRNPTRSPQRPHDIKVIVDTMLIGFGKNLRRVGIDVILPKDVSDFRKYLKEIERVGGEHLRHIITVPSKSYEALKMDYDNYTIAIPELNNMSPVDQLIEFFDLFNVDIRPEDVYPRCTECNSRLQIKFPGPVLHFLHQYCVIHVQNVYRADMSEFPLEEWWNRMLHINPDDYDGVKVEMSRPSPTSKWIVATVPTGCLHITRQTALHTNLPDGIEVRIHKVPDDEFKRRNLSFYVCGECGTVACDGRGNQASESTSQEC

T5: MUT-7^FL, purified (C. elegans) (UniProt P34607)
T5 sequence: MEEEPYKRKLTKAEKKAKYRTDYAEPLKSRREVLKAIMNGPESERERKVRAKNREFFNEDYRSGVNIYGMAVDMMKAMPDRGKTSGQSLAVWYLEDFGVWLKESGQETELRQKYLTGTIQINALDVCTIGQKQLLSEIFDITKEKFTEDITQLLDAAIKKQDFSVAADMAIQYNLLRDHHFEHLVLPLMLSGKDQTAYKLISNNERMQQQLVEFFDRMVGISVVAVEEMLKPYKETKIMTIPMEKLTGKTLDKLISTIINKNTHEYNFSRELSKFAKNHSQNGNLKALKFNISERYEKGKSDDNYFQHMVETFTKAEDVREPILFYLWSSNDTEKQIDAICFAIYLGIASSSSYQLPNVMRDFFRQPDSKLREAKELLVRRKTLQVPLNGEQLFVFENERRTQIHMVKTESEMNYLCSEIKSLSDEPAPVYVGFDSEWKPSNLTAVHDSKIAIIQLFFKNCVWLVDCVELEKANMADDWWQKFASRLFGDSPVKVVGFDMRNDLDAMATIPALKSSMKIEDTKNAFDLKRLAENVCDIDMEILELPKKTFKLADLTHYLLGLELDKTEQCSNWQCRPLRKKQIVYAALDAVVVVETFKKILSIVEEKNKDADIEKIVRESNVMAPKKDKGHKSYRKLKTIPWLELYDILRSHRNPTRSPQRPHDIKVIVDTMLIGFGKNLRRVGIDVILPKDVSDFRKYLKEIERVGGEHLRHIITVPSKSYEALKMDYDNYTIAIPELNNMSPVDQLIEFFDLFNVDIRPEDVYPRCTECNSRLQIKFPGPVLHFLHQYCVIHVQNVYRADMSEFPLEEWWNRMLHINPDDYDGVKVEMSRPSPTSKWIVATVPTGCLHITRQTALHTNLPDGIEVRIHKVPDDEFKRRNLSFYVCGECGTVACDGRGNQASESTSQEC

T6: MUT-7^CTD (633-910), purified in complex with MUT-8^CTD (C. elegans) (UniProt P34607)
T6 sequence: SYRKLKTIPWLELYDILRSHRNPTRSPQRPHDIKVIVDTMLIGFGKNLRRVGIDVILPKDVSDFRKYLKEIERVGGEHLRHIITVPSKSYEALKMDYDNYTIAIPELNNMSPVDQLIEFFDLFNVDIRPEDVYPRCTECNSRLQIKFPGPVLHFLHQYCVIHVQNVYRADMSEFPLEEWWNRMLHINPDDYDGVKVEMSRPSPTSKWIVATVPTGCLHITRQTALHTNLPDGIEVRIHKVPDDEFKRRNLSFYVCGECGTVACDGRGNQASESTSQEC


How the values were obtained:
[1] = biological target: T1, GST-tagged MUT-16^1-383 (C. elegans); experiment: pull-down
[2] = biological target: T2, GST-tagged MUT-16^1-584 (C. elegans); experiment: pull-down
[3] = biological target: T3, GST-tagged MUT-16^584-724 (C. elegans); experiment: pull-down
[4] = biological target: T4, MUT-7^FL(D435A), purified in complex with MUT-8^CTD (C. elegans); experiment: co-purification
[5] = biological target: T5, MUT-7^FL, purified (C. elegans); experiment: co-purification
[6] = biological target: T6, MUT-7^CTD (633-910), purified in complex with MUT-8^CTD (C. elegans); experiment: SEC-MALS
[7] = biological target: T6, MUT-7^CTD (633-910), purified in complex with MUT-8^CTD (C. elegans); experiment: cross-linking

binding [1] | binding [2] | binding [3] | binding [4] | binding [5] | binding [6] | binding [7] | Binder
no binding (tested: 5 µM) | no binding (tested: 5 µM) | binds | – | – | – | – | MUT-7^FL/MUT-8^FL complex (complex, UniProt P34607 1-910; Q19672 1-578) chain 1: MEEEPYKRKLTKAEKKAKYRTDYAEPLKSRREVLKAIMNGPESERERKVRAKNREFFNEDYRSGVNIYGMAVDMMKAMPDRGKTSGQSLAVWYLEDFGVWLKESGQETELRQKYLTGTIQINALDVCTIGQKQLLSEIFDITKEKFTEDITQLLDAAIKKQDFSVAADMAIQYNLLRDHHFEHLVLPLMLSGKDQTAYKLISNNERMQQQLVEFFDRMVGISVVAVEEMLKPYKETKIMTIPMEKLTGKTLDKLISTIINKNTHEYNFSRELSKFAKNHSQNGNLKALKFNISERYEKGKSDDNYFQHMVETFTKAEDVREPILFYLWSSNDTEKQIDAICFAIYLGIASSSSYQLPNVMRDFFRQPDSKLREAKELLVRRKTLQVPLNGEQLFVFENERRTQIHMVKTESEMNYLCSEIKSLSDEPAPVYVGFDSEWKPSNLTAVHDSKIAIIQLFFKNCVWLVDCVELEKANMADDWWQKFASRLFGDSPVKVVGFDMRNDLDAMATIPALKSSMKIEDTKNAFDLKRLAENVCDIDMEILELPKKTFKLADLTHYLLGLELDKTEQCSNWQCRPLRKKQIVYAALDAVVVVETFKKILSIVEEKNKDADIEKIVRESNVMAPKKDKGHKSYRKLKTIPWLELYDILRSHRNPTRSPQRPHDIKVIVDTMLIGFGKNLRRVGIDVILPKDVSDFRKYLKEIERVGGEHLRHIITVPSKSYEALKMDYDNYTIAIPELNNMSPVDQLIEFFDLFNVDIRPEDVYPRCTECNSRLQIKFPGPVLHFLHQYCVIHVQNVYRADMSEFPLEEWWNRMLHINPDDYDGVKVEMSRPSPTSKWIVATVPTGCLHITRQTALHTNLPDGIEVRIHKVPDDEFKRRNLSFYVCGECGTVACDGRGNQASESTSQEC chain 2: MHNGYHSYFPPNHYYAQSQPSSSYNPQPQIQQPQTQIYGLVVGYNKYGNRNYLFYTKNIDGFVEISGNIQSLQIGRWLKLTVCQNFVGQYVLDSSNSCGYENWDVLPNHRNSSARFFPKYEANDEGEILITARFDVIVDRKNNLYDFTSYDISYDHIIDDFSLIKSSCQHYDGRSFIVEAQASLAGWVALSVHEDPQKLHTCDAVSRNGYQSLPNPVVDSDVQYLHDTRLLDIMTGNGYVQTPETDVQDQQSSQHQEDVHSQMNSQTSDSYNSSRVVSENREIPPETFRSQSIELNQVDSSLSQTTISSRAAPVIDSNQLSDEDEIDDEDTYGTRGTSNIPMRPFIKDLAPTMLQLLRQDKTDSEKPQSALCTVVQKIDGFAILYTAKRDVINVLLQERSCEGLERSPQLGDVAFFDILPRRIETKDRLIFKIPYTHIAVKKKPDTPDSLLKIDCFKNSVRCFGGVLEMKVKIALSKPELVVEQYHDNTEMNSDHHFYYLKATNGVLVTIPKERLLNHLNSKLSADFDLIAWVVHRKPIGNVSLHIGKGGEAYQQFTNGDIRELPPLSSNQYFMNVRK
– | – | – | binds | binds | binds | binds | MUT-8^CTD (322-578), purified in complex with MUT-7 constructs (domain or fragment, UniProt Q19672 322-578) DEDEIDDEDTYGTRGTSNIPMRPFIKDLAPTMLQLLRQDKTDSEKPQSALCTVVQKIDGFAILYTAKRDVINVLLQERSCEGLERSPQLGDVAFFDILPRRIETKDRLIFKIPYTHIAVKKKPDTPDSLLKIDCFKNSVRCFGGVLEMKVKIALSKPELVVEQYHDNTEMNSDHHFYYLKATNGVLVTIPKERLLNHLNSKLSADFDLIAWVVHRKPIGNVSLHIGKGGEAYQQFTNGDIRELPPLSSNQYFMNVRK
